For two substances, binding results are on record in PMC12805371.

By UniProt entry, the sequences of proteins in these tests, tags left out. Where a name states a change or a piece, a line headed by the entry shows the natural chain unless it says otherwise. Residues count along the entry.
UniProt O75808: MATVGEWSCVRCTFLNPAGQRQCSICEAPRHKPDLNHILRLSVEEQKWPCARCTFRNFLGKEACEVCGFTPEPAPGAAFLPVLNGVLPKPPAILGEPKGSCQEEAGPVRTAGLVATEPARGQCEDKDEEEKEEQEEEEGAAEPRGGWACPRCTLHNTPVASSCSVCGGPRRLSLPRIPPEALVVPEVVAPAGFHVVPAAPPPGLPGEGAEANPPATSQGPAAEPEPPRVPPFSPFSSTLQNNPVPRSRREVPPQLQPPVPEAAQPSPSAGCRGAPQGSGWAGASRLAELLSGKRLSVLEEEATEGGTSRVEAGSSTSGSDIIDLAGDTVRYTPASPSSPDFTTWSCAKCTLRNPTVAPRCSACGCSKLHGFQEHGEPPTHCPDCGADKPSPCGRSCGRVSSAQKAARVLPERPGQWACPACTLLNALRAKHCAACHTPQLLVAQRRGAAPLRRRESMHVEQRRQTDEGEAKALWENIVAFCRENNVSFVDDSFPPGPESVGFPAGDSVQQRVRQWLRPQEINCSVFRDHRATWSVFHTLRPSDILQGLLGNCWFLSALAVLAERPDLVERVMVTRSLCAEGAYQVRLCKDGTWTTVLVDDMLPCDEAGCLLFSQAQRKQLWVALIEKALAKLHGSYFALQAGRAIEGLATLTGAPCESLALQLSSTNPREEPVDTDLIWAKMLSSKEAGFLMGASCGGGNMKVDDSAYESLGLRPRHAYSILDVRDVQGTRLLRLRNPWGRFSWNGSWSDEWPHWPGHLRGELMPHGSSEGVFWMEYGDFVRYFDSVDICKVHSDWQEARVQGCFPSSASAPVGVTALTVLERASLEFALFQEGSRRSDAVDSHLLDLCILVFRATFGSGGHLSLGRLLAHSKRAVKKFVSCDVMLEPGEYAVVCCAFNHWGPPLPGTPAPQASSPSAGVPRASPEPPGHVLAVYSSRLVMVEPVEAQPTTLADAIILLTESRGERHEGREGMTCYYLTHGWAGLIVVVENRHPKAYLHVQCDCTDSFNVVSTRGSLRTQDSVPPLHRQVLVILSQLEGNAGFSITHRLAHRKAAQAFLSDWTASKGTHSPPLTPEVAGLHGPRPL
UniProt P22223, residues 108-829: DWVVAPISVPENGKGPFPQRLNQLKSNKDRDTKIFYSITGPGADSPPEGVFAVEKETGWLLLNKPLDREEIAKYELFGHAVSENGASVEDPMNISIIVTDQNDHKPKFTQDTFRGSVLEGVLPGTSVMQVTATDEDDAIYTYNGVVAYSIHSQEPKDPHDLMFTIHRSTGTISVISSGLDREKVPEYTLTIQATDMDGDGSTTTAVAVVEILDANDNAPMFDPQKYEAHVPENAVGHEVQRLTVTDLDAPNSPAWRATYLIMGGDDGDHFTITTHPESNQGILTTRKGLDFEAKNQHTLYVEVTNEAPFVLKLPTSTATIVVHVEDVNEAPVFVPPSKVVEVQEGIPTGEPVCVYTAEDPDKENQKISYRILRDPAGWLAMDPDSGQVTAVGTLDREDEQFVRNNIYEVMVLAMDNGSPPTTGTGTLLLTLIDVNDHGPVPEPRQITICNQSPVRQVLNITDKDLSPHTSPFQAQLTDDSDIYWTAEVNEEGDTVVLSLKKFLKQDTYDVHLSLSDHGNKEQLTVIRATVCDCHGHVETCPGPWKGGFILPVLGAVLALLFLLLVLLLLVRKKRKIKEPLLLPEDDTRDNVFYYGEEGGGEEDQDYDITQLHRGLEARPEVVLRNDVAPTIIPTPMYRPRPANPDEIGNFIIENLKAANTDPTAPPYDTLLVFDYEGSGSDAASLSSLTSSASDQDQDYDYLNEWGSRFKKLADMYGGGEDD
UniProt P35221: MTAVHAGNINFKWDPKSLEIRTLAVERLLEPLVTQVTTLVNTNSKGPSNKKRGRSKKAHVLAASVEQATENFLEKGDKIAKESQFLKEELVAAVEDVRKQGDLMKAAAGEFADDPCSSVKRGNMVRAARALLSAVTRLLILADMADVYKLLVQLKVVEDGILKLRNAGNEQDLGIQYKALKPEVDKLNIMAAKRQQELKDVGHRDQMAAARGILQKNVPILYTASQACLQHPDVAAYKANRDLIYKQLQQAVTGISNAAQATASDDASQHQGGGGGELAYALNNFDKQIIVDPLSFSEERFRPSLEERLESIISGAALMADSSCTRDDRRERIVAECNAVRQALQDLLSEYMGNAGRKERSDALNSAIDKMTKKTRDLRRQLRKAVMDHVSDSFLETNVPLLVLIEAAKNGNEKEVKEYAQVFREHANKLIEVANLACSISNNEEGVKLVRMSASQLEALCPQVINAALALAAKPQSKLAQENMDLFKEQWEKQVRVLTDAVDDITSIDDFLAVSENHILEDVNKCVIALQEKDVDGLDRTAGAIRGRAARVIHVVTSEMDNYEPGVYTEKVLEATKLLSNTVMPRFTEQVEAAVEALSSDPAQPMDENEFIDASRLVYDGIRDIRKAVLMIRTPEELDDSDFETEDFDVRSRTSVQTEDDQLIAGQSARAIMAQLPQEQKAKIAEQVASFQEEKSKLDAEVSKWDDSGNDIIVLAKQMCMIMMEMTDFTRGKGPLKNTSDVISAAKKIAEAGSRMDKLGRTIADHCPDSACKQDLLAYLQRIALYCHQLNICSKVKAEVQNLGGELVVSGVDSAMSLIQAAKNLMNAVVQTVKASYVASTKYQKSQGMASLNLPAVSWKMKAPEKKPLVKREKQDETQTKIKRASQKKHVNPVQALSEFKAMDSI

Experiment [1] deals with FLAG-tagged WT CAPN15 (human) (UniProt O75808). The experiment is described as follows: co-IP; lysates of KO, WTtg, CStg and NEtg cells (stable FLAG-CAPN15 forms) immunoprecipitated with anti-FLAG antibody beads, western blotting; cells treated with DMSO or 1 μM MLN7243 (immunoprecipitation reduced), or with or without 2 mM EDTA for 30 min (immunoprecipitation enhanced in CStg).

Experiment [2] addresses FLAG-tagged protease-inactive CAPN15C552S (human) (UniProt O75808). The description is as above.

These are yes or no findings as the source states them, for the method shown. In cells and extracts the contact can be indirect. Some entries that bind do so weakly or less than the wild type.

Regarding “P-cadherin/CDH3 (from UniProt P22223 108-829)”, the binding result in experiment [1] and in experiment [2] was “binds” in each case.

Regarding “α-catenin/CTNNA1 (from UniProt P35221 1-906)”, the binding entry in experiment [1] and in experiment [2] was “binds” in each case.
